From US20120071419A1
Results are given in words; binding and its absence hold for the method and conditions named. Some results given as binding are weak or reduced against the parent protein; the word gives no strength.

Target: EGFR (Epidermal Growth Factor Receptor) (human) (UniProt P00533)
Assay: phage ELISA on coated EGFR

Row | binding | Binder
1 | binds | clone 6 of the 1OZJ scaffold (designed binder) MSSILPFTPPIVKRLLGWKKGEQNGQEEKWCEKAVKSLVKKLKSTGQLDELEKAITTQNVNTKCITIPRSLDGRLQVSHRKGLPHVIYCRLWRWPDLHSHHELRAMGLCSFAFNMKKLEVCVNPYHYQRVETPVLPPVLVPRHT
2 | binds | clone 7 of the 1OZJ scaffold (designed binder) MSSILPFTPPIVKRLLGWKKGEQNGQEEKWCEKAVKSLVKKLKLTGQLDELEKAITTQNVNTKCITIPRSLDGRLQVSHRKGLPHVIYCRLWRWPDLHSHHELRAMALCAFAFMMKKCEVCVNPYHYQRVETPVLPPVLVPRHT
3 | binds | clone 9 of the 1OZJ scaffold (designed binder) MSSILPFTPPIVKRLLGWKKGEQNGQEEKWCEKAVKSLVKKLKATGQLDELEKAITTQNVNTKCITIPRSLDGRLQVSHRKGLPHVIYCRLWRWPDLHSHHELRAMQLCIFAFLMKKPEVCVNPYHYQRVETPVLPPVLVPRHT
